Results published in paper PMC10791558.
No constants are given. Whether binding was seen depends on the method and setting. Binding seen in cells or lysates may run through a third protein.

Protein sequences, listed by entry. Tags and fused reporters are not part of them. Residues count along the entry.
UniProt Q5S007: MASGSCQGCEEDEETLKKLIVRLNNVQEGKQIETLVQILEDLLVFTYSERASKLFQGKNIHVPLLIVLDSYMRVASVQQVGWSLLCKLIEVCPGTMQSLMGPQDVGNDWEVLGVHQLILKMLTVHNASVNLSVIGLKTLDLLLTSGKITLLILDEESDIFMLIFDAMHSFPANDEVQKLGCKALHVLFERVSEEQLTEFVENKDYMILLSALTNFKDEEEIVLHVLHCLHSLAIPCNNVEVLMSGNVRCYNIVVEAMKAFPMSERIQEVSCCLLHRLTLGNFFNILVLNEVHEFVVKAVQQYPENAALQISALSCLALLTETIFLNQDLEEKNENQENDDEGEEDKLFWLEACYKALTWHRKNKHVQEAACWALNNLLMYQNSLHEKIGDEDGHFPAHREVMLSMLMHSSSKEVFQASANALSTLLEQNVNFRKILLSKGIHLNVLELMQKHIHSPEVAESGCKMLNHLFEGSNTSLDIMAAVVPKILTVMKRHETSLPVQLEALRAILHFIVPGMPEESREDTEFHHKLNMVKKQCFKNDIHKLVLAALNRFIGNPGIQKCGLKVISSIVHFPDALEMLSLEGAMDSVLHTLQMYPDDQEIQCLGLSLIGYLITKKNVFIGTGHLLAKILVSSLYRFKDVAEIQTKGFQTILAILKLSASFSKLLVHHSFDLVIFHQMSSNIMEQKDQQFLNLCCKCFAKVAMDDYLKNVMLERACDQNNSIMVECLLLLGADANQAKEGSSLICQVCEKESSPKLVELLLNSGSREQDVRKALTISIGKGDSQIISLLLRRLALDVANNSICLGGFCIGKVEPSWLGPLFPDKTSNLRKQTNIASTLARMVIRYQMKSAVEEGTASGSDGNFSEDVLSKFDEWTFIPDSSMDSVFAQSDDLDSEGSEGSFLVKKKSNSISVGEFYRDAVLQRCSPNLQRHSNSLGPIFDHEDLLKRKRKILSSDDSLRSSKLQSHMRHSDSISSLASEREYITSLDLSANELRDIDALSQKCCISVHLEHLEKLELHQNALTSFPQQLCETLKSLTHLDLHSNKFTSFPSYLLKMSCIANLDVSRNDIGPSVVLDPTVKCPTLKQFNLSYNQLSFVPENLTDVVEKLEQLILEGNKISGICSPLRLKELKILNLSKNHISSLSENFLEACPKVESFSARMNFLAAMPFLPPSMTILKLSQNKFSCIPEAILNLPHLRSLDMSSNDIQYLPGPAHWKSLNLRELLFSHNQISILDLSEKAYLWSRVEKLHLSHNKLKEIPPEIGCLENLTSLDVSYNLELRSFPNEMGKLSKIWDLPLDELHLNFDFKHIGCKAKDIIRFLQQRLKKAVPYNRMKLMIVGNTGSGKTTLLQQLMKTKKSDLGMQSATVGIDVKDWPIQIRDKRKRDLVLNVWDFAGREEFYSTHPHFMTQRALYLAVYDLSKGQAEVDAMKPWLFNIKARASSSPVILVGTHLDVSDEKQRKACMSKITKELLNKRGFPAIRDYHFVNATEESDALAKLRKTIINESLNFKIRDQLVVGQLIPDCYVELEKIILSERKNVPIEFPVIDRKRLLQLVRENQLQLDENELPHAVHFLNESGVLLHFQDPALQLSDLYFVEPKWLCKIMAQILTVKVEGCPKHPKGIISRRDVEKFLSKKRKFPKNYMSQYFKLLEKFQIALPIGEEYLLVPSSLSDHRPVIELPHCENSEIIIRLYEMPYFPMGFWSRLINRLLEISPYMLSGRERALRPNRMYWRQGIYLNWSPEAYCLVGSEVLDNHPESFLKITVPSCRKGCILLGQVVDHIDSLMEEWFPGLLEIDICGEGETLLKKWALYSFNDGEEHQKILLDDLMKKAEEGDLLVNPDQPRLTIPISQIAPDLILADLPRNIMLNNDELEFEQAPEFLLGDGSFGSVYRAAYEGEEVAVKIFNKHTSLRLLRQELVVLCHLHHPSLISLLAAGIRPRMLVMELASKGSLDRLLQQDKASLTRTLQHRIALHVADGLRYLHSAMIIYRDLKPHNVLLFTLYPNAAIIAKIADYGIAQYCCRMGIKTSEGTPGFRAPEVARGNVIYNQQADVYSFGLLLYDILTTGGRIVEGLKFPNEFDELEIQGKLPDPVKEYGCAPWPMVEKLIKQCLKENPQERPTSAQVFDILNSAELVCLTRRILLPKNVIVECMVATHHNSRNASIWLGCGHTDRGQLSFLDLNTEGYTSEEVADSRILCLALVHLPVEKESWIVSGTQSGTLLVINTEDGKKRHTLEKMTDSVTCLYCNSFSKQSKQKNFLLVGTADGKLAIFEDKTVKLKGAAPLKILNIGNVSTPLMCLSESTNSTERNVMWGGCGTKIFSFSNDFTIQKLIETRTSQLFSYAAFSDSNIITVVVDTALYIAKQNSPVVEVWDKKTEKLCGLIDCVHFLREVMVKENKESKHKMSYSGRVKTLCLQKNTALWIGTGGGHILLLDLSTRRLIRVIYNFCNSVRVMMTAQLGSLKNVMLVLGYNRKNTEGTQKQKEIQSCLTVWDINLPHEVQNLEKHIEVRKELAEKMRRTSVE
UniProt Q9BXW4, residues 1-126: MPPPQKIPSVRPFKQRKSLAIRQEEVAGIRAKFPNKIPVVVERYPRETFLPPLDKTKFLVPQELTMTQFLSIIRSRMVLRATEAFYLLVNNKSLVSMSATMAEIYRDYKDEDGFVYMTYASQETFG
UniProt P60520: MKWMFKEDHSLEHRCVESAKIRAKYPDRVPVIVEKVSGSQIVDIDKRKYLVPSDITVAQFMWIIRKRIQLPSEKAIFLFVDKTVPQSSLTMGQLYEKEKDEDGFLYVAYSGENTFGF

molecular target: GFP-tagged LRRK2 (leucine-rich repeat kinase 2) (UniProt Q5S007); experiment: co-IP; HEK293 cells overexpressing 3×FLAG-tagged ATG8 family proteins together with GFP-tagged LRRK2 or p62; lysis in 50 mM Tris HCl pH 7.6, 150 mM NaCl, 0.5% Triton X-100; GFP-Trap beads, 2 h at 4°C; five washes with TBS

binding, no binding:
3×FLAG-tagged LC3C (from UniProt Q9BXW4 1-126)
3×FLAG-tagged GABARAPL2 (from UniProt P60520 1-117)
3×FLAG-tagged LC3A (from UniProt Q9H492 1-121)
